Laboratory results from article PMC4907486.
These are yes or no findings as the source states them, for the method shown. In cells and extracts the contact can be indirect.

Chains of the proteins cited; added tags and fusions are not shown.
UniProt Q16512: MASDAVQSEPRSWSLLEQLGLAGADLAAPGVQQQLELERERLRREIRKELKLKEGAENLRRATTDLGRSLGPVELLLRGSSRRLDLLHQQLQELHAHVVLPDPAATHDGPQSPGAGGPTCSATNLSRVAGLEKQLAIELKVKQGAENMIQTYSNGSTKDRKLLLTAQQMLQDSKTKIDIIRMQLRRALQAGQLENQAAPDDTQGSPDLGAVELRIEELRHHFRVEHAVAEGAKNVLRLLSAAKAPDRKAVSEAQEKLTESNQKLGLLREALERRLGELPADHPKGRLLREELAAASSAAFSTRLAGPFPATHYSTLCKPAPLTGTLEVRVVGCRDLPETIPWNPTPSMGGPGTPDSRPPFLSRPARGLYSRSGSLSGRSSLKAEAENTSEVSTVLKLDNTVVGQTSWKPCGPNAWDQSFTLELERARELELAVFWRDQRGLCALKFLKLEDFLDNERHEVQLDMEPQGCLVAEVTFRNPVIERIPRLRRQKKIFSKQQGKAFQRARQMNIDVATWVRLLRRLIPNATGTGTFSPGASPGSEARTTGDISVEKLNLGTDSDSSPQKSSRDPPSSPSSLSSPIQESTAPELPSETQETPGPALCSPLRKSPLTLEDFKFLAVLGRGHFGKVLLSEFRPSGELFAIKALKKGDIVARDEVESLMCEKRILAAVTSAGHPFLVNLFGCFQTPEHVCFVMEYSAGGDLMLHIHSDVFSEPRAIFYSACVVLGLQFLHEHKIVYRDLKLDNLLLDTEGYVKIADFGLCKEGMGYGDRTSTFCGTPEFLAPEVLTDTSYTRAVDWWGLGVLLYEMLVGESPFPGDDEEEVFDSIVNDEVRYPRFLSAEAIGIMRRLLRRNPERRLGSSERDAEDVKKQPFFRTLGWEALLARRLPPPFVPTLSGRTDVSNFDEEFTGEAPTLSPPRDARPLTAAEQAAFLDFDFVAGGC
UniProt O00571: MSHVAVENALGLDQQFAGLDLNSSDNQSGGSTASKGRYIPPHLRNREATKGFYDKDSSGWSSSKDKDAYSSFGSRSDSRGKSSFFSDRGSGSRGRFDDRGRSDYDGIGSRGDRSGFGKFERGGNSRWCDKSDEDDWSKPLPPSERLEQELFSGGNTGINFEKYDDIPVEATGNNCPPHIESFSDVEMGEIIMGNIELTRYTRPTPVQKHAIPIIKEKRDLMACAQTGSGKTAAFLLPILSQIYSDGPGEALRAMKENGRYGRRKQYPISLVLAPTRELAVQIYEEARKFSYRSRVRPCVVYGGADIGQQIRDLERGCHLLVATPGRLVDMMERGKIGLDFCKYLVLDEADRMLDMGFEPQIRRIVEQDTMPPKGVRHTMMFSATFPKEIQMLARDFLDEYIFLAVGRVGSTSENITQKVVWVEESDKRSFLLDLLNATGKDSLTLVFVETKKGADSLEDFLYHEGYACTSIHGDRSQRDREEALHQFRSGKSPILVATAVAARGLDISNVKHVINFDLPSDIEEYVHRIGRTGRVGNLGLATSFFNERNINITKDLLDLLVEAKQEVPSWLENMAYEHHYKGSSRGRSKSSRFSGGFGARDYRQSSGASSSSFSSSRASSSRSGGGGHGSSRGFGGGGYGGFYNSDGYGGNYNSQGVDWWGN

Biological target: PKN-FLAG (FLAG-tagged PKN1) expressed in HEK293T cells (UniProt Q16512)
Experiment: co-IP

With “DDX3, endogenous in HEK293T cells (from UniProt O00571 1-662)” the binding was “no binding”.
